Laboratory results taken from the supplement of paper PMC7666118.
Some of the results follow.

Sequences of proteins named here, by UniProt entry; tags and fusion partners are left off. A change or cut given only in a name is not applied to a line headed by its entry.
UniProt Q96GG9: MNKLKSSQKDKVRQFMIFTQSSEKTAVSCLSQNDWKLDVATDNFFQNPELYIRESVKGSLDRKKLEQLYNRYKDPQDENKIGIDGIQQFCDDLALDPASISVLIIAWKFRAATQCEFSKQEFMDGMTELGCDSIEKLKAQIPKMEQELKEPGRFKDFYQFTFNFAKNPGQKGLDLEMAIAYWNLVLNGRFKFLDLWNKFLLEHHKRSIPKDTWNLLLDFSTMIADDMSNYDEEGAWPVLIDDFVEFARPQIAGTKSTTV
UniProt Q9UPY3: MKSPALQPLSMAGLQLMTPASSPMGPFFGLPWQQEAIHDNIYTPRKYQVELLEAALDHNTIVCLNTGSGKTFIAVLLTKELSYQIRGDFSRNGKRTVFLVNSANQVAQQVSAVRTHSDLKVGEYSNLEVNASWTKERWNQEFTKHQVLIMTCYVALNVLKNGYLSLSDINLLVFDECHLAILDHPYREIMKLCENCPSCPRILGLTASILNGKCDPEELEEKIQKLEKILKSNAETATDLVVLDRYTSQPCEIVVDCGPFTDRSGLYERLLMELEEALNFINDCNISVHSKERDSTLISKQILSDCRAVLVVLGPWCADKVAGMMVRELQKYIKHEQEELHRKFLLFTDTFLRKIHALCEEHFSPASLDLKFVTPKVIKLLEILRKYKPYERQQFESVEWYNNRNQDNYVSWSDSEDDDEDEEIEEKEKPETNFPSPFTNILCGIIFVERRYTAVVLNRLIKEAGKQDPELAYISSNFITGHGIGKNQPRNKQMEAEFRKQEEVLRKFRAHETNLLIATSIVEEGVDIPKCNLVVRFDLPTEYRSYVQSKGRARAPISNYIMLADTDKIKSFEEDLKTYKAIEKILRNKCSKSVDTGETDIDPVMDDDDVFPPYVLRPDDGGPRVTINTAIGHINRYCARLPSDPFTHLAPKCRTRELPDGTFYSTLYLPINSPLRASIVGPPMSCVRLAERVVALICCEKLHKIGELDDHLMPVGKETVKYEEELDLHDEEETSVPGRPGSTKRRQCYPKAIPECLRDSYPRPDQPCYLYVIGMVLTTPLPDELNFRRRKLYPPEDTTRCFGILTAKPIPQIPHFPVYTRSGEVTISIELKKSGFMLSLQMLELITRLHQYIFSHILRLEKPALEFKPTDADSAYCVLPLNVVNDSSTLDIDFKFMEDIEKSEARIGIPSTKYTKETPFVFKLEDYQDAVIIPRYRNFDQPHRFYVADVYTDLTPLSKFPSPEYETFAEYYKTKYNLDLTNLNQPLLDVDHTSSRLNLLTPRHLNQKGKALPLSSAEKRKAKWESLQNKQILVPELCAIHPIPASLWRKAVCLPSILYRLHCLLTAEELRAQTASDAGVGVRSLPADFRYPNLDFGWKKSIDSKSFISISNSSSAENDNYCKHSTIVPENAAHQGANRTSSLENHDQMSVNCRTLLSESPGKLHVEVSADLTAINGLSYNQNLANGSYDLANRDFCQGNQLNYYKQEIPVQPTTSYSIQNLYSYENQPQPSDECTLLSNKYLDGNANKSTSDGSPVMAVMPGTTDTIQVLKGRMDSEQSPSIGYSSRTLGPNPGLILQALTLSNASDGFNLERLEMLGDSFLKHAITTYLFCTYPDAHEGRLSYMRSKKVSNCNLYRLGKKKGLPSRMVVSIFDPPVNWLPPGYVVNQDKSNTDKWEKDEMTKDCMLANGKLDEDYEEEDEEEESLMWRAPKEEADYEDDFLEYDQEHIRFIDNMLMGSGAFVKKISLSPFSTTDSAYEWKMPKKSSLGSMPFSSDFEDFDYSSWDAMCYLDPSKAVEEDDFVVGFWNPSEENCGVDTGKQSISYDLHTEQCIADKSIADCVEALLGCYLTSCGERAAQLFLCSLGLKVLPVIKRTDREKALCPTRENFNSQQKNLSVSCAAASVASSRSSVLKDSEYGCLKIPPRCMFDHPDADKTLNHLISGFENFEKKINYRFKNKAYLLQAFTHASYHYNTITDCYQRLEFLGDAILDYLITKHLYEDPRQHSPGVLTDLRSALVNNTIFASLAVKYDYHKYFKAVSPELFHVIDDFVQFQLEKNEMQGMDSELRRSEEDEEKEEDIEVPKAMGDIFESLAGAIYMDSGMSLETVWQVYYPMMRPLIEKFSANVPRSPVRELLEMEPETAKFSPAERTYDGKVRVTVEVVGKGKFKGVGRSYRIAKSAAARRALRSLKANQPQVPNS
UniProt O00399, whole entry: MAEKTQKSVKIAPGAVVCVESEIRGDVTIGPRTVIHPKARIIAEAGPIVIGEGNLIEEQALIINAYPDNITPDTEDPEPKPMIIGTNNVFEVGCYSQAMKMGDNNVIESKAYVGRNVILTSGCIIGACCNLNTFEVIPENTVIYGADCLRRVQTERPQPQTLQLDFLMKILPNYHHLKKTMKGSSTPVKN
UniProt Q12996: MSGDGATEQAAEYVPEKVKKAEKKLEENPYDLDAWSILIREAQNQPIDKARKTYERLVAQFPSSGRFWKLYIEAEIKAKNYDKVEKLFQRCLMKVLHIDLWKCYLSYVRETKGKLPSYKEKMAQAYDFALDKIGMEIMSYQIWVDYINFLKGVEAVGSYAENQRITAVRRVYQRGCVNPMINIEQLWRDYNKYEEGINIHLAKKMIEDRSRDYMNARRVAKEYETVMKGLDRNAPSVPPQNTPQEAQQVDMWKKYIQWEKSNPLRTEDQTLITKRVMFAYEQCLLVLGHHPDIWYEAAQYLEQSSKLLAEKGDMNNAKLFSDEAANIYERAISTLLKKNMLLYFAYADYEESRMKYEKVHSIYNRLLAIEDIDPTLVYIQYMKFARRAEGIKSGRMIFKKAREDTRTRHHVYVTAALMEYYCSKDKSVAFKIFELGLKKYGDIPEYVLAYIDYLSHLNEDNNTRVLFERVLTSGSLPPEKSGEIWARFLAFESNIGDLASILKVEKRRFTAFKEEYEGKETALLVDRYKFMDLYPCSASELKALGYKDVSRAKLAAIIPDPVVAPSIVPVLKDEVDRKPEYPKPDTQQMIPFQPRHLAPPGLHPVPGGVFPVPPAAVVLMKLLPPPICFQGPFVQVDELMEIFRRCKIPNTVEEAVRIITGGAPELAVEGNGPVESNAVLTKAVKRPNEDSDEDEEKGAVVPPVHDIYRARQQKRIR
UniProt P81605: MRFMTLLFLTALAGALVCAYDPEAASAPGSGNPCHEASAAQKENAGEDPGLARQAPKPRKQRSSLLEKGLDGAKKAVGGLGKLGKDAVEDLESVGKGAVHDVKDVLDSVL
UniProt Q9P265: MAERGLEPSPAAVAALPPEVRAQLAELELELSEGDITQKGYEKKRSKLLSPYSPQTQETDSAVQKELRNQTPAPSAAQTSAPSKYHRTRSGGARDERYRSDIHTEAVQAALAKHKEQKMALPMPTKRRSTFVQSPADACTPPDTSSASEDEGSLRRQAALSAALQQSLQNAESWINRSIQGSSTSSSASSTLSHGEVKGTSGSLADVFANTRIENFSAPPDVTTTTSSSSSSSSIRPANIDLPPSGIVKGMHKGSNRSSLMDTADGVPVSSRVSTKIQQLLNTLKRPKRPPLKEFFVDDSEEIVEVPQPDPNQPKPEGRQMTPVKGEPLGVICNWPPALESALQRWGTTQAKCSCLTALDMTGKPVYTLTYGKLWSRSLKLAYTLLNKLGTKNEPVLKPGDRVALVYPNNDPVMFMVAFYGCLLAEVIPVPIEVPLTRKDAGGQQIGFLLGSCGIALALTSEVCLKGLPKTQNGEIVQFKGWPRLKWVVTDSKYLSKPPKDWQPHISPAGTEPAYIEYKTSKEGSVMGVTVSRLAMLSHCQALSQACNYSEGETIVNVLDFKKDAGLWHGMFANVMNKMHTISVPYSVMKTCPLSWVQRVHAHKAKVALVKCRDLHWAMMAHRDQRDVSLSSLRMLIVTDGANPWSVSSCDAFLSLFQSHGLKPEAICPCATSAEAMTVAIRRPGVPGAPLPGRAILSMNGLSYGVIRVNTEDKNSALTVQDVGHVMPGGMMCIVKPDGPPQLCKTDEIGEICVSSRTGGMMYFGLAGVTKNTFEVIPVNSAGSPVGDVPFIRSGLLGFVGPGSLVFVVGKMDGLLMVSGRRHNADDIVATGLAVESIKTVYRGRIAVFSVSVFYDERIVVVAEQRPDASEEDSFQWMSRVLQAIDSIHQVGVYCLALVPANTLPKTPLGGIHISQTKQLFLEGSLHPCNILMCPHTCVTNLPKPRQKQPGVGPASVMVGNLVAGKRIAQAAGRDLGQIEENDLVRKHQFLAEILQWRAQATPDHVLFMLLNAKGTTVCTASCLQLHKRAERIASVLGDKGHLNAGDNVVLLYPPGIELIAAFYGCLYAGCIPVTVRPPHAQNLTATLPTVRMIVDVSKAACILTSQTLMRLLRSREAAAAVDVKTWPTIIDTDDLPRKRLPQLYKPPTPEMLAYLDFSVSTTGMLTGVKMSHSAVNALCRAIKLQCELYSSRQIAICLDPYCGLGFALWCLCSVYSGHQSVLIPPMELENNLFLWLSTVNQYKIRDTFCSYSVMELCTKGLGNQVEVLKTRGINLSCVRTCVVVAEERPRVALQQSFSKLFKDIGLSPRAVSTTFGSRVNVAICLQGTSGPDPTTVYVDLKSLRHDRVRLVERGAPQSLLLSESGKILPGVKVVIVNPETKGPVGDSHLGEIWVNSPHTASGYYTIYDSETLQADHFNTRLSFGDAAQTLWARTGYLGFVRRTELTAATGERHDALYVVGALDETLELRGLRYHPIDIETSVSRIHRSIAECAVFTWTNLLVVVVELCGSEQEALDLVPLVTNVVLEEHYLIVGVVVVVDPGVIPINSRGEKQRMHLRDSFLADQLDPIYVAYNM
UniProt Q8TB03: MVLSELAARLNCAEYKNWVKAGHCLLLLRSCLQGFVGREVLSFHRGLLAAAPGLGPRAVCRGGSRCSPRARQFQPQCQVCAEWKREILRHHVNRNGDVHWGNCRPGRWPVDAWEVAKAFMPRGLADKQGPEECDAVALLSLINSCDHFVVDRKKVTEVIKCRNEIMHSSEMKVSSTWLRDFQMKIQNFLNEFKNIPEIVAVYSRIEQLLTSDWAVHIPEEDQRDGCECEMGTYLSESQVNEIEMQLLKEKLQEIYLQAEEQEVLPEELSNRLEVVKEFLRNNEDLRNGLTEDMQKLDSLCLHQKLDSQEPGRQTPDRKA
UniProt P42126: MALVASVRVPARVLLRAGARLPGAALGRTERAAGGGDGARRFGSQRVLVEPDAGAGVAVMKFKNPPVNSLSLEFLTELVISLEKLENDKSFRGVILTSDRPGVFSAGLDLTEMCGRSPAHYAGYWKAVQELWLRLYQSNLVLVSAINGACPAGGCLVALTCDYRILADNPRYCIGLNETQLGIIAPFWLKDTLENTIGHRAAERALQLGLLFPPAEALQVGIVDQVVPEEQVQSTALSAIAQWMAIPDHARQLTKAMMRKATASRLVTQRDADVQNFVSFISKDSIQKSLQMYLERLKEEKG
UniProt Q99704: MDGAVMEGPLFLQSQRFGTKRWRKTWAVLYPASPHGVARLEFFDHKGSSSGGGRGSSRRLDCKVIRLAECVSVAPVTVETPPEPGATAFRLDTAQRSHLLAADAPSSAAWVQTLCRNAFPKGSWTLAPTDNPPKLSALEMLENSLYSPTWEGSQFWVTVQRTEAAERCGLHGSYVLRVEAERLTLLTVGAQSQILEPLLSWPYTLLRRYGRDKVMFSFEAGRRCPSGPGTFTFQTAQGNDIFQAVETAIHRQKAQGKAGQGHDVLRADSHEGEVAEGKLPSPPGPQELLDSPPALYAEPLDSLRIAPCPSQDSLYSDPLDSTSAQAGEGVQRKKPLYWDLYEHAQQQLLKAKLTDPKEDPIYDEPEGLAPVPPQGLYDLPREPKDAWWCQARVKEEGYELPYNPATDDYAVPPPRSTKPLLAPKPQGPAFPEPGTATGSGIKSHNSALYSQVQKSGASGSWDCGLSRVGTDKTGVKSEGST
UniProt Q99615: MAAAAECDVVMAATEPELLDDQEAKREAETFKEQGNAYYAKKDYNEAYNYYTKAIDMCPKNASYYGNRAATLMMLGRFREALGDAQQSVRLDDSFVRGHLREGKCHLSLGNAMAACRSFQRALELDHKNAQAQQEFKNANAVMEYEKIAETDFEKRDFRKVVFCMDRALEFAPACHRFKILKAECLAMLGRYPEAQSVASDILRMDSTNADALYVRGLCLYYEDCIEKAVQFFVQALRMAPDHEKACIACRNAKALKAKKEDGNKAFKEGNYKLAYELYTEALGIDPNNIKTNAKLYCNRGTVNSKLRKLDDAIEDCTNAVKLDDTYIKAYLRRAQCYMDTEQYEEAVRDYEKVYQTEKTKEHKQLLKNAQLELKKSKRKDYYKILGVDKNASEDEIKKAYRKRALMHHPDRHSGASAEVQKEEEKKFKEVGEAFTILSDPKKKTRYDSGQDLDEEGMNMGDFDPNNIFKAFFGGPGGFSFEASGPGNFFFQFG
UniProt O43583: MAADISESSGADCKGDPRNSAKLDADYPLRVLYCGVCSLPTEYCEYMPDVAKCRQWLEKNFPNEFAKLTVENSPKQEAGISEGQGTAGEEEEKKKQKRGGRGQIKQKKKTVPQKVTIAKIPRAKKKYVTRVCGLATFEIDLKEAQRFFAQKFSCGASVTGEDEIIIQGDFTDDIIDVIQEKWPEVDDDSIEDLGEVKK

What follows are targets tested with COc1ccc(Cn2ccc3cc(C)c(C(=O)NO)cc32)cc1 (assay: dose-dependent thermal stabilisation call (2D-TPP, DLPTP, 10% FDR) (binary (1 = stabilised)); higher = stabilised by the compound). Settings: system: HL-60 intact cells; concentration range 0.04-10 µM.
Description: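 2D thermal proteome profiling in intact HL-60 cells treated with BRD-3811 (0, 0.04, 0.29, 2, 10 uM) for 90 min at 37 C, then heated 3 min at one of 12 temperatures (42-63.9 C). Soluble protein was quantified by TMT10 MS. The value is the DLPTP call of the paper: dose-dependent thermal stabilisation over all temperatures at 10% FDR (F-test of a dose-response against a flat model); one experiment, one call per tested protein.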

Target | dose-dependent thermal stabilisation call
DPP8 (UniProt Q6V1X1) | inactive: 0
DCUN1D1 (UniProt Q96GG9) | inactive: 0
DDX39 (UniProt O00148) | inactive: 0
DICER1 (UniProt Q9UPY3) | inactive: 0
CUL1 (UniProt Q13616) | inactive: 0
DHX30 (UniProt Q7L2E3) | inactive: 0
DHRS1 (UniProt Q96LJ7) | inactive: 0
DNAJC6 (UniProt O75061) | inactive: 0
CXXC1 (UniProt Q9P0U4) | inactive: 0
DENND3 (UniProt A2RUS2) | inactive: 0
DCPS (UniProt Q96C86) | inactive: 0
DCTN6 (UniProt O00399) | inactive: 0
CSTF3 (UniProt Q12996) | inactive: 0
DGKE (UniProt P52429) | inactive: 0
DGKH (UniProt Q86XP1) | inactive: 0
CTSW (UniProt P56202) | inactive: 0
DHRS11 (UniProt Q6UWP2) | inactive: 0
DNM2 (UniProt P50570) | inactive: 0

Target | dose-dependent thermal stabilisation call
DAG1 (UniProt Q14118) | inactive: 0
DCD (UniProt P81605) | inactive: 0
DIP2B (UniProt Q9P265) | inactive: 0
CTAGE5 (UniProt Q96PC5) | inactive: 0
DDX3X (UniProt O00571) | inactive: 0
DOCK6 (UniProt Q96HP0) | inactive: 0
CXORF38 (UniProt Q8TB03) | inactive: 0
DKFZP686O24166 | inactive: 0
DDX11 (UniProt Q96FC9) | inactive: 0
DCI (UniProt P42126) | inactive: 0
DAP3 (UniProt P51398) | inactive: 0
DOK1 (UniProt Q99704) | inactive: 0
CSDE1 (UniProt O75534) | inactive: 0
DAPK3 (UniProt O43293) | inactive: 0
DLGAP5 (UniProt Q15398) | inactive: 0
DNAJC7 (UniProt Q99615) | inactive: 0
DDX54 (UniProt Q8TDD1) | inactive: 0
DENR (UniProt O43583) | inactive: 0

As a working copy, part of the list above:
Target | dose-dependent thermal stabilisation call
CSDE1 (UniProt O75534) | inactive: 0
DAPK3 (UniProt O43293) | inactive: 0
DLGAP5 (UniProt Q15398) | inactive: 0
DNAJC7 (UniProt Q99615) | inactive: 0
DDX54 (UniProt Q8TDD1) | inactive: 0
DENR (UniProt O43583) | inactive: 0
